Laboratory results taken from the supplement of paper PMC10849652.
This is one part of the list.

Protein sequences, listed by entry. Tags and fused reporters are not part of them. Lines headed by an entry give the natural chain unless they say otherwise; changes in a name come on top.
UniProt Q9BPX6: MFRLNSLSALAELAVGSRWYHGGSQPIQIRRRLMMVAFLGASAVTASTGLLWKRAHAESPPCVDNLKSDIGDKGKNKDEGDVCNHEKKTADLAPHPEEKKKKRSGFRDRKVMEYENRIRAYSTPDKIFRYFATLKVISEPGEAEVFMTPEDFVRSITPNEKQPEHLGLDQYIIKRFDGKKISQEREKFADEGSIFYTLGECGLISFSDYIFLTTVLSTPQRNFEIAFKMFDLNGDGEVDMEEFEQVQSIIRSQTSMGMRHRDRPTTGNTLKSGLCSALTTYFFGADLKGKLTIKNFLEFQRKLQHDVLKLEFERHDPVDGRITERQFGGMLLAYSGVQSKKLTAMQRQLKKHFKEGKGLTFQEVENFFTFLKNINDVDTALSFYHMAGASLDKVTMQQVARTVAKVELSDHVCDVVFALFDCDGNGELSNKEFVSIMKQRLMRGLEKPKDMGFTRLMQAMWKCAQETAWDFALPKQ
UniProt Q96EY8: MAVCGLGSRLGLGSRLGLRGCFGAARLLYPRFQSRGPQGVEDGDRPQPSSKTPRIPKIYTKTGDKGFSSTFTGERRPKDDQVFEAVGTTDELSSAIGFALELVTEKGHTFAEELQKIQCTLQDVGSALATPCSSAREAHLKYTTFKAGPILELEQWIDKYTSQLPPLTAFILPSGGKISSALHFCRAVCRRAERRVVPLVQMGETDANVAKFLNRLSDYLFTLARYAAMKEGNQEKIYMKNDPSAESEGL
UniProt Q5JRA6: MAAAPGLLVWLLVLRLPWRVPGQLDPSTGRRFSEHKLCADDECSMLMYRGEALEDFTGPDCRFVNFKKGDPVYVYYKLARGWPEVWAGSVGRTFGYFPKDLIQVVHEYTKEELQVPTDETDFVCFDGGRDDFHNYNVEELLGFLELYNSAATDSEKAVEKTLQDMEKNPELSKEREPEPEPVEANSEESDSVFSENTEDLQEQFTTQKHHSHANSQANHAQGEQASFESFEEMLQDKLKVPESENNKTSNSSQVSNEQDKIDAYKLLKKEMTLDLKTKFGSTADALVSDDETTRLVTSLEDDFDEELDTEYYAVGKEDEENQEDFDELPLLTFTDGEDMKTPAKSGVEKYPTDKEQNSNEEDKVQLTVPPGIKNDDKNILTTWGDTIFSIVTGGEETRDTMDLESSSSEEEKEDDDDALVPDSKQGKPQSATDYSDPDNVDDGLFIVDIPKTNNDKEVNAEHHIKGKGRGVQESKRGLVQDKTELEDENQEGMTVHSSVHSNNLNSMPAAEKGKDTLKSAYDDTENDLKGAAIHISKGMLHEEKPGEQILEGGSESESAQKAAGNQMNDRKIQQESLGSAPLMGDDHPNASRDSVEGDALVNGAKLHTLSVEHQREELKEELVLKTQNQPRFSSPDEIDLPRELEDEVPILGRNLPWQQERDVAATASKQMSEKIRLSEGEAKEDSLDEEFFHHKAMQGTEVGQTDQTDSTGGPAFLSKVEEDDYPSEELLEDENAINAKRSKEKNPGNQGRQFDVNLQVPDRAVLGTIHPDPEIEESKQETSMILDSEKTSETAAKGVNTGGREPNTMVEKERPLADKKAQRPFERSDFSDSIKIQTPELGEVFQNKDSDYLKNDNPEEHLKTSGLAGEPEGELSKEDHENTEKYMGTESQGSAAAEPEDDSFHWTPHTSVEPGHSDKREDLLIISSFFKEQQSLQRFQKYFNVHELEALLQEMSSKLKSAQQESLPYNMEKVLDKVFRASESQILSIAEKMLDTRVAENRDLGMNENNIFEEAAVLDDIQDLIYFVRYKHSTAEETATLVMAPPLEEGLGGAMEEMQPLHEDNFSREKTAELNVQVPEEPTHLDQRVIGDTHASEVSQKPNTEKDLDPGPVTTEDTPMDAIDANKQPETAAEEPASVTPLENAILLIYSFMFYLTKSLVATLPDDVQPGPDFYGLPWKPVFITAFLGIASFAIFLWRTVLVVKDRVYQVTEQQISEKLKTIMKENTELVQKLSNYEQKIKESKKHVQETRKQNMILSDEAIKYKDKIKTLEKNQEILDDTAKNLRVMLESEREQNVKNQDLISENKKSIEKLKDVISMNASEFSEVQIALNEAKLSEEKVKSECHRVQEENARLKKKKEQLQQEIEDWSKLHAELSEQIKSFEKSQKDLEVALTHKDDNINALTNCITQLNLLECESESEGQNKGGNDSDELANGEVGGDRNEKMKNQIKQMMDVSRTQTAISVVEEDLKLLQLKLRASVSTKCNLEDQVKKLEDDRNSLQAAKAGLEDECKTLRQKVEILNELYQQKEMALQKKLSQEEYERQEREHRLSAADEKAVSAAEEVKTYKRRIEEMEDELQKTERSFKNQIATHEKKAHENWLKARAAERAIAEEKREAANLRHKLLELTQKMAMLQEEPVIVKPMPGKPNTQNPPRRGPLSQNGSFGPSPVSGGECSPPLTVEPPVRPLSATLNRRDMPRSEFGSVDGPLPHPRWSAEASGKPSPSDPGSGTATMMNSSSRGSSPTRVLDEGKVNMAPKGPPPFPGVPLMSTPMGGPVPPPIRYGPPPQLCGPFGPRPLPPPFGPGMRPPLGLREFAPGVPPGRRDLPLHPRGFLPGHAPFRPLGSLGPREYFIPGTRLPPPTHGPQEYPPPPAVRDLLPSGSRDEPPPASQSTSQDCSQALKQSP
UniProt Q9Y605: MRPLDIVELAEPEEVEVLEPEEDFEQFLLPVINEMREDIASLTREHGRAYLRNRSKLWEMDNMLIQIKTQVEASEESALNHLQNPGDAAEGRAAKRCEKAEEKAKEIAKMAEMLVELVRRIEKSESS
UniProt Q70IA6: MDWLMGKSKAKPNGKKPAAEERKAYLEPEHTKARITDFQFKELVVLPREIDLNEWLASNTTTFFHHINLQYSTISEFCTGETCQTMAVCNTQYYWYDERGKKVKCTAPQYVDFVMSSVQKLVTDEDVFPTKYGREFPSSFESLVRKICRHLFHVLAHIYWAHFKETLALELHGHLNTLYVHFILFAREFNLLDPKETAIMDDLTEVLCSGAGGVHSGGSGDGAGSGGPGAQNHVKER
UniProt O14880: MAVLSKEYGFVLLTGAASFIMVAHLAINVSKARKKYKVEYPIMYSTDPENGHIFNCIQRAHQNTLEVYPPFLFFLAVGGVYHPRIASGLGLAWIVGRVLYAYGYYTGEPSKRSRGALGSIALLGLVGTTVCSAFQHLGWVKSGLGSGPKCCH
UniProt Q14149: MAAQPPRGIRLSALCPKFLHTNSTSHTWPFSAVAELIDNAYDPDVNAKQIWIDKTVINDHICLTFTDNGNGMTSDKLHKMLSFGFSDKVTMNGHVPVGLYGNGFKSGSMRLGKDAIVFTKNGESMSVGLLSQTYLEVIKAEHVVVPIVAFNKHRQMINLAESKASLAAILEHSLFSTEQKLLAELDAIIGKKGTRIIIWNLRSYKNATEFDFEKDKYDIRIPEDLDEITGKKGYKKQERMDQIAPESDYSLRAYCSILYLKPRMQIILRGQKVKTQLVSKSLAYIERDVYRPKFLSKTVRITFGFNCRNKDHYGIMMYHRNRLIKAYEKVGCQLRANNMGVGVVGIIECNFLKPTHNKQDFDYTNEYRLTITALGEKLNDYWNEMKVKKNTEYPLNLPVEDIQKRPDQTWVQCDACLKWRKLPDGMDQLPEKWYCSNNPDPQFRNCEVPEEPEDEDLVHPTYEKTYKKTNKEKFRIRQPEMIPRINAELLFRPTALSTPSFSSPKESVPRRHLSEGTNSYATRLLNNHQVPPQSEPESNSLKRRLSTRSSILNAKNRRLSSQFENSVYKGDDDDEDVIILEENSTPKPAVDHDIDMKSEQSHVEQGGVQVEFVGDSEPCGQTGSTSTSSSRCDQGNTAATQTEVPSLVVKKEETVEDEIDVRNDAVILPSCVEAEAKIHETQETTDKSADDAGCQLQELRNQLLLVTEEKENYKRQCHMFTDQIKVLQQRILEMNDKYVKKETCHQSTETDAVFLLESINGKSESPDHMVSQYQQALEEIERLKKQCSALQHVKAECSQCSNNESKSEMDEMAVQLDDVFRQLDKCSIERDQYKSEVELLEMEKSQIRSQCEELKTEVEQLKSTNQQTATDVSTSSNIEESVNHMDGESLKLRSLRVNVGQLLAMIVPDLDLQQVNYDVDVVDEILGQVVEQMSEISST
UniProt Q9UQ53: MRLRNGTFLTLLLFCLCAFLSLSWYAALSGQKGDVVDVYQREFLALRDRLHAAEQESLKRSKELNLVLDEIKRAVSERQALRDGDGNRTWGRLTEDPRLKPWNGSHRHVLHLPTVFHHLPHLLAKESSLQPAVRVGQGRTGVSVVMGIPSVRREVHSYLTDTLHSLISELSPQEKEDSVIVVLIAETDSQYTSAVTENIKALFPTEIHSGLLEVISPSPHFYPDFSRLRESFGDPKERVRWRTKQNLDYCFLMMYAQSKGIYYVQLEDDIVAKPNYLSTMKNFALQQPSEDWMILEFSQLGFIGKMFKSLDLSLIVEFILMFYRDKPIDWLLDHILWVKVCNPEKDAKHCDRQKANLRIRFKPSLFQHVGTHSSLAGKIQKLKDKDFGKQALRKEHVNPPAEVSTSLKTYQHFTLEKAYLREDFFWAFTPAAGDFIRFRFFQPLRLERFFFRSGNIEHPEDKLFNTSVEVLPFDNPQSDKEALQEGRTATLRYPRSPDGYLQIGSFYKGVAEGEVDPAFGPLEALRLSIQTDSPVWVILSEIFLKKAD
UniProt P10620: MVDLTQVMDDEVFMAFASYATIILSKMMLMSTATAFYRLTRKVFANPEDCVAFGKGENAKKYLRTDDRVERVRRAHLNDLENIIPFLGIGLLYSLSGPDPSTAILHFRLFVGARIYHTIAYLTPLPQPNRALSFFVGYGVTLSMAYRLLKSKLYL
UniProt P40692: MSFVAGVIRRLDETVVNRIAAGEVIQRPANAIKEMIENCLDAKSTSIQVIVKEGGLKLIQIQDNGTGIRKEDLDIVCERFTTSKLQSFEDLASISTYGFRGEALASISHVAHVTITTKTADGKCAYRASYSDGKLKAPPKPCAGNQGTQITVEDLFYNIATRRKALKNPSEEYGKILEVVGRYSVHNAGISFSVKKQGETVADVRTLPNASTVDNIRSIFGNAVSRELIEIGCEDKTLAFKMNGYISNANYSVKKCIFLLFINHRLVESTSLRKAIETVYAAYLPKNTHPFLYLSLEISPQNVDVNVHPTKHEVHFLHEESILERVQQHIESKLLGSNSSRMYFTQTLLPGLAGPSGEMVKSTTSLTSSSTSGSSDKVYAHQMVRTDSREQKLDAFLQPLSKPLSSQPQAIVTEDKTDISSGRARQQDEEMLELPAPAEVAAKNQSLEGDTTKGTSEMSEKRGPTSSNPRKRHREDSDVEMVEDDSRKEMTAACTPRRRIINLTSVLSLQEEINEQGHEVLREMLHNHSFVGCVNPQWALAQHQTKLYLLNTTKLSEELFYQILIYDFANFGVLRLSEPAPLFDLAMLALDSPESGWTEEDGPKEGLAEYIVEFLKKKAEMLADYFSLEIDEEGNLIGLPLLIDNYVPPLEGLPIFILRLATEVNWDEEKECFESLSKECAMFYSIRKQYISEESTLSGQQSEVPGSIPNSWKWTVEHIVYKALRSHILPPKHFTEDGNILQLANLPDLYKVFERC
UniProt Q9NZB8: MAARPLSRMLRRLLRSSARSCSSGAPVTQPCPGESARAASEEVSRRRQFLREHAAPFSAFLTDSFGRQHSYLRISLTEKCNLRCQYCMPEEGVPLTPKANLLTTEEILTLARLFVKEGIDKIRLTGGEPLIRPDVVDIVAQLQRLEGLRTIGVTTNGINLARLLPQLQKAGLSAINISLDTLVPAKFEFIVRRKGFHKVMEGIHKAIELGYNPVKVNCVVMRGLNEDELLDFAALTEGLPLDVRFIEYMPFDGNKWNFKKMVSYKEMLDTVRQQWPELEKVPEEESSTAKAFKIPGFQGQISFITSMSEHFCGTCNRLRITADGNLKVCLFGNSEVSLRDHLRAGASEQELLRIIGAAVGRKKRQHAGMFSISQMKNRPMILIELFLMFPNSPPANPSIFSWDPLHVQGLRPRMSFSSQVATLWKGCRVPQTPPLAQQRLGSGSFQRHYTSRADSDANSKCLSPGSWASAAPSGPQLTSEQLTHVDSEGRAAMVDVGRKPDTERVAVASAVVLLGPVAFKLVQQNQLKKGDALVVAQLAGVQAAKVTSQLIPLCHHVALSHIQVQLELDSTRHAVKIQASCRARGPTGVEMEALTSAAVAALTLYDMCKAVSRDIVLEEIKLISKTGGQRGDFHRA
UniProt O75352: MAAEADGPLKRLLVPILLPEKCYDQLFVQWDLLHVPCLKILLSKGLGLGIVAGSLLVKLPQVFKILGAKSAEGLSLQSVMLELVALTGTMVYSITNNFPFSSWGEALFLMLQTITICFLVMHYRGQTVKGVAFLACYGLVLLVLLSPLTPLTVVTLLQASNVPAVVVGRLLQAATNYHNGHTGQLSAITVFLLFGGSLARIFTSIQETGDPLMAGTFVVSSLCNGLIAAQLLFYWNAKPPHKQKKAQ
UniProt P14174: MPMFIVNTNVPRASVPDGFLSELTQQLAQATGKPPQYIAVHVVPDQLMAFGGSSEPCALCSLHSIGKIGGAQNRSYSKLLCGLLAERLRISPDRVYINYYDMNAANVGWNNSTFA

How the values were obtained:
Assay in all cases: log2 fold change, soluble protein after heating vs DMSO (PISA); higher = thermal stabilisation; K562 lysate, 10 uM; active = over 0.2 and 3.5 SD of the protein, either way, in both replicates (recomputed)
[1] = compound: C#Cc1cccc(Nc2ncnc3cc(OCCOC)c(OCCOC)cc23)c1 [erlotinib]
Outline: (§1)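 Thermal stability, expressed as log-two fold change relative to solvent controls, is given from duplicates. Crude K562 extract in PBS pH 7.4 with 1 mM MgCl2, at 1 mg/mL protein, was treated with 10 μM compound for 30 min and heated in aliquots for 3 min across 48°C-58°C. After pooling, adjustment to 0.5% NP-40 at 4°C and centrifugation at 21,000xg for 90 min, supernatant protein was measured by TMTpro 16plex LC-MS/MS with channel sums equalised.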

[2] = compound: C/C(=N\NC(=O)C1=CC(=CC=C1)S(=O)(=O)N2CCOCC2)/C3=C(C=CC(=C3)Cl)O
Outline: as §1

[3] = compound: C1=CC(=CC=C1C2=NC3=C(N2)C=C(C=C3)C(=O)N)OC4=CC=C(C=C4)Cl
Outline: as §1

[4] = compound: C1=CC2=C(C=CC(=C2)/C=C\3/C(=O)NC(=NCC4=CC=CS4)S3)N=C1
Outline: as §1

[5] = compound: C1=CC2=NC=CN=C2C=C1/C=C/3\C(=O)NC(=O)S3
Outline: as §1

[6] = compound: C1=CC=C(C=C1)C2=NC(=C(N2)C3=CC=NC=C3)C4=CC(=C(C=C4)Cl)O
Outline: as §1

[7] = compound: C1=CC=C2C(=C1)C3=NNC4=CC=CC(=C43)C2=O
Outline: as §1

[8] = compound: C1CCN(C1)C(=O)NC2=CC=CC(=C2)NC3=NC=C(C(=N3)NCCC4=CN=CN4)Br
Outline: as §1

[9] = compound: C1CN(CCC1(CC2=CC=C(C=C2)Cl)N)C3=NC=NC4=C3C=CN4
Outline: as §1

[10] = compound: C1COCCN1CCN2C3=CC=CC=C3N=C2NC(=O)C4=CC(=CC=C4)[N+](=O)[O-] [IRAK-1-4 Inhibitor I]
Outline: as §1

Measured: log2 fold change

MICU1 isoform 3 (UniProt Q9BPX6)
inactive: [1] 0.009 | [2] 0.049 | [3] -0.029 | [4] -0.017 | [5] -0.012 | [6] -0.047 | [7] 0.001 | [8] 0.016 | [9] 0.012 | [10] 0.024

MMAB (UniProt Q96EY8)
inactive: [1] -0.006 | [2] 0.047 | [3] 0.007 | [4] 0.025 | [5] -0.022 | [6] 0.011 | [7] -0.035 | [8] 0.002 | [9] 0.03 | [10] 0.033

MOB3B (UniProt Q86TA1)
inactive: [1] 0.023 | [2] -0.162 | [3] 0.015 | [4] -0.091 | [5] -0.048 | [6] -0.036 | [7] -0.237 | [8] 0.102 | [9] -0.138 | [10] 0.061

MIA3 (UniProt Q5JRA6)
inactive: [1] -0.012 | [2] -0.033 | [3] 0.04 | [4] 0.015 | [5] -0.039 | [6] -0.02 | [7] -0.091 | [8] -0.009 | [9] 0.009 | [10] -0.01

MICAL1 isoform 4 (UniProt Q8TDZ2)
inactive: [1] 0.025 | [2] 0.022 | [3] -0.044 | [4] 0.021 | [5] -0.07 | [6] -0.031 | [7] -0.013 | [8] -0.018 | [9] 0.036 | [10] 0.037

MRPL1 (UniProt Q9BYD6)
inactive: [1] 0.003 | [2] 0.064 | [3] -0.056 | [4] -0.013 | [5] 0.002 | [6] 0.003 | [7] -0.016 | [8] 0.049 | [9] -0.071 | [10] -0.013

MLLT11 (UniProt Q13015)
inactive: [1] 0.053 | [2] -0.018 | [3] -0.271 | [4] 0.063 | [5] -0.038 | [6] -0.018 | [7] -0.054 | [8] -0.372 | [9] 0.111 | [10] 0.044

MPP6 (UniProt Q9NZW5)
inactive: [1] -0.011 | [2] 0.005 | [3] -0.031 | [4] -0.021 | [5] 0 | [6] -0.004 | [7] -0.016 | [8] -0.031 | [9] 0.005 | [10] -0.01

MORF4L2 (UniProt Q15014)
inactive: [1] -0.021 | [2] -0.008 | [3] 0 | [4] -0.021 | [5] -0.052 | [6] 0.001 | [7] -0.046 | [8] -0.009 | [9] 0.038 | [10] -0.022

MRFAP1 (UniProt Q9Y605)
inactive: [1] -0.032 | [2] -0.204 | [3] -0.024 | [4] 0.007 | [5] 0.177 | [6] -0.044 | [7] 0.007 | [8] -0.013 | [9] 0.023 | [10] 0.091

MIB1 (UniProt Q86YT6)
inactive: [1] 0.049 | [2] 0.029 | [3] -0.043 | [4] -0.043 | [5] 0.002 | [6] 0.025 | [7] -0.046 | [8] 0.011 | [9] 0.081 | [10] -0.004

MOGS (UniProt Q13724)
inactive: [1] -0.018 | [2] -0.035 | [3] -0.068 | [4] 0.009 | [5] -0.003 | [6] -0.033 | [7] -0.051 | [8] 0.015 | [9] 0.009 | [10] 0.002

MOB2 isoform 3 (UniProt Q70IA6)
inactive: [1] -0.01 | [2] -0.148 | [3] 0.041 | [4] -0.082 | [5] 0.045 | [6] 0.057 | [7] -0.133 | [8] -0.003 | [9] -0.015 | [10] -0.032

Random excerpt: two entries already listed
MOB2 isoform 3 (UniProt Q70IA6)
inactive: [1] -0.01 | [2] -0.148 | [3] 0.041 | [4] -0.082 | [5] 0.045 | [6] 0.057 | [7] -0.133 | [8] -0.003 | [9] -0.015 | [10] -0.032

MRFAP1 (UniProt Q9Y605)
inactive: [1] -0.032 | [2] -0.204 | [3] -0.024 | [4] 0.007 | [5] 0.177 | [6] -0.044 | [7] 0.007 | [8] -0.013 | [9] 0.023 | [10] 0.091

Next results:

MGST3 (UniProt O14880)
inactive: [1] 0.007 | [2] 0.011 | [3] 0.008 | [4] 0.022 | [5] 0.011 | [6] -0.021 | [7] -0.054 | [8] -0.009 | [9] -0.035 | [10] 0.019

MITD1 (UniProt Q8WV92)
inactive: [1] -0.016 | [2] 0.025 | [3] -0.019 | [4] 0.021 | [5] 0.014 | [6] -0.072 | [7] -0.016 | [8] -0.047 | [9] -0.02 | [10] -0.033

MORC3 (UniProt Q14149)
inactive: [1] 0.02 | [2] -0.047 | [3] -0.005 | [4] 0.01 | [5] -0.025 | [6] 0.034 | [7] -0.033 | [8] -0.029 | [9] 0.002 | [10] -0.011

MRPL23 (UniProt Q16540)
inactive: [1] -0.033 | [2] 0.049 | [3] 0.036 | [4] 0.037 | [5] -0.021 | [6] 0.015 | [7] -0.057 | [8] 0.013 | [9] 0.009 | [10] 0.094

MLXIP (UniProt Q9HAP2)
inactive: [1] 0.011 | [2] 0.003 | [3] 0.027 | [4] 0.01 | [5] -0.017 | [6] 0.04 | [7] -0.011 | [8] -0.025 | [9] -0.01 | [10] 0.003

MGAT4B isoform 3 (UniProt Q9UQ53)
inactive: [1] -0.048 | [2] -0.214 | [3] -0.017 | [4] 0.063 | [5] -0.041 | [6] -0.077 | [7] -0.238 | [8] -0.1 | [9] 0.013 | [10] -0.022

MGST1 (UniProt P10620)
inactive: [1] -0.041 | [2] -0.068 | [3] 0.016 | [4] -0.051 | [5] 0.024 | [6] -0.031 | [7] -0.036 | [8] -0.07 | [9] 0.089 | [10] 0.067

MPG (UniProt P29372)
inactive: [1] 0.015 | [2] 0.015 | [3] -0.021 | [4] -0.018 | [5] -0.02 | [6] 0.019 | [7] -0.09 | [8] -0.049 | [9] 0.02 | [10] -0.009

MOCS3 (UniProt O95396)
inactive: [1] 0.047 | [2] 0.01 | [3] -0.033 | [4] -0.135 | [5] -0.011 | [6] -0.003 | [7] -0.02 | [8] 0.143 | [9] -0.07 | [10] 0.049

MRPL13 (UniProt Q9BYD1)
inactive: [1] -0.022 | [2] -0.008 | [3] -0.02 | [4] -0.044 | [5] -0.027 | [6] 0.02 | [7] -0.021 | [8] -0.119 | [9] -0.072 | [10] 0.033

MLEC (UniProt Q14165)
inactive: [1] -0.01 | [2] 0.026 | [3] -0.031 | [4] 0.011 | [5] -0.012 | [6] -0.018 | [7] 0.009 | [8] 0.026 | [9] 0.008 | [10] 0.032

MLH1 (UniProt P40692)
inactive: [1] 0.018 | [2] 0.021 | [3] -0.011 | [4] 0.012 | [5] -0.079 | [6] 0.025 | [7] -0.019 | [8] -0.037 | [9] 0.015 | [10] -0.002

MOCS1 isoform 8 (UniProt Q9NZB8)
inactive: [1] -0.055 | [2] -0.002 | [3] 0.074 | [4] 0.058 | [5] -0.008 | [6] 0.026 | [7] 0 | [8] -0.056 | [9] 0.183 | [10] 0.02

MPDU1 (UniProt O75352)
inactive: [1] 0.049 | [2] -0.144 | [3] 0.049 | [4] -0.045 | [5] 0.119 | [6] -0.022 | [7] 0.063 | [8] -0.029 | [9] 0.031 | [10] 0.035

MIF (UniProt P14174)
inactive: [1] 0.006 | [2] 0.003 | [3] -0.021 | [4] -0.045 | [5] -0.007 | [6] -0.009 | [7] 0.047 | [8] -0.023 | [9] 0.032 | [10] 0.058

MIS18A (UniProt Q9NYP9)
inactive: [1] -0.01 | [2] 0.031 | [3] 0.023 | [4] 0.037 | [5] -0.029 | [6] 0.017 | [7] 0.02 | [8] 0.018 | [9] -0.049 | [10] -0.018

MPRIP isoform 2 (UniProt Q6WCQ1)
inactive: [1] -0.001 | [2] 0.03 | [3] -0.005 | [4] 0.017 | [5] -0.016 | [6] 0.008 | [7] -0.03 | [8] 0.029 | [9] -0.016 | [10] 0.004
